Laboratory results: PubChem BioAssay AID1259308 (NCATS, 2017)
Purpose: 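Candidate targets for better recombinant protein yield in mammalian cells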 (primary screen). System: human HEK293 embryonic kidney cells stably expressing firefly luciferase (HEK-CMV-Luc2-Hygro). Reagents: single siRNA against human genes, 0.8 pmol siRNA per well. Duration: 72 h. Read-out: 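Luciferase light (ONE-Glo) measured on one replicate plate set and viability (CellTiter-Glo) on the other, scaled to a negative control siRNA, with robust z-scores and luciferase per cell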. Direction: total luciferase, z-score and total luciferase, % of control: higher = more reporter protein produced; luciferase per cell, z-score: higher = more reporter output per viable cell; viable cells, % of control: higher = more viable cells. Active means: 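An siRNA counts as active if its total luciferase robust z-score exceeds 3; genes with two or more such siRNAs out of three were retested with fresh siRNAs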. Calls: active = raised luciferase; inactive = no rise.
Here is a random part of about 59,000 reagents. About 1,510 of all reagents (2.6%) were called active. 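Calls use total luciferase alone and ignore viability, so some active siRNAs may act by altering cell number.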 The numbers tell different reagents against one gene apart. No sequences are given here.

no.	gene	reagent	total luciferase, z-score	total luciferase, % of control	luciferase per cell, z-score	viable cells, % of control	outcome
1	FTCD	1	0.875	99.3	0.735	91.4	inactive
2	FTCD	2	-1.15	59	-1.63	101	inactive
3	FTCD	3	-0.767	66.6	-0.597	87.1	inactive
4	TEX264	1	2.27	127	3.06	63.5	inactive
5	TEX264	2	-0.254	76.8	0.159	82.3	inactive
6	TEX264	3	-1.69	48.3	-1.35	76.9	inactive
7	PIGM	1	0.053	82.9	0.505	81.1	inactive
8	PIGM	2	-0.699	68	-0.745	92.4	inactive
9	PIGM	3	-1.84	45.3	-2.36	94.2	inactive
10	CENPK	1	-1.31	55.7	-0.837	77.6	inactive
11	CENPK	2	0.492	91.7	0.652	86.3	inactive
12	CENPK	3	1.1	104	1.16	85.4	inactive
13	GRK6	1	1.16	105	0.559	101	inactive
14	GRK6	2	0.161	85.1	-0.0371	96	inactive
15	GRK6	3	5.67	195	3.63	83.5	active
16	TYW5	1	2.36	129	2.33	77.9	inactive
17	TYW5	2	0.386	89.6	0.725	82.7	inactive
18	TYW5	3	-0.705	67.9	-0.676	90.6	inactive
19	MATK	1	-0.707	67.8	-0.181	79.5	inactive
20	MATK	2	-1.44	53.3	-1.08	79.1	inactive
21	MATK	3	-1.47	52.6	-1.13	79.1	inactive
22	DNMT1	1	-0.488	72.2	-0.985	105	inactive
23	DNMT1	2	1.48	111	0.591	106	inactive
24	DNMT1	3	0.82	98.2	1.17	80.7	inactive

Single entries from the entries so far.
Entry of GRK6 #1 under “total luciferase, z-score”: 1.16
Entry for TYW5 #2 under “outcome”: inactive
For “outcome”, PIGM #1 reads inactive
For “outcome”, MATK #3 has inactive
Entry for TYW5 #3 under “total luciferase, z-score”: -0.705
Entry for PIGM #2 under “luciferase per cell, z-score”: -0.745

Additional records follow.
no.	gene	reagent	total luciferase, z-score	total luciferase, % of control	luciferase per cell, z-score	viable cells, % of control	outcome
25	FABP5P9	1	0.655	94.9	-0.226	113	inactive
26	FABP5P9	2	1.24	107	1.2	86.7	inactive
27	FABP5P9	3	0.82	98.2	0.826	88.3	inactive
28	CPXCR1	1	-0.862	64.7	-0.564	83.9	inactive
29	CPXCR1	2	-0.674	68.5	-0.894	96.8	inactive
30	CPXCR1	3	-1.06	60.7	-2.04	116	inactive
31	TRAFD1	1	3.16	145	2.67	80.1	active
32	TRAFD1	2	0.331	88.5	0.529	86	inactive
33	TRAFD1	3	-0.542	71.1	0.525	69.2	inactive
34	KLC2	1	0.405	89.9	0.568	86.5	inactive
35	KLC2	2	1.75	117	1.35	91.5	inactive
36	KLC2	3	-0.995	62.1	-0.755	84.6	inactive
37	FAM76B	1	1.23	106	2.23	66.1	inactive
38	FAM76B	2	-0.372	74.5	-0.355	91.4	inactive
39	FAM76B	3	-0.712	67.7	-0.915	96.3	inactive
40	ACTG1	1	-0.656	68.8	-0.0863	78.7	inactive
41	ACTG1	2	-0.973	62.5	-0.607	82	inactive
42	ACTG1	3	-2.1	40.1	-1.32	63.4	inactive
43	SDF2L1	1	-0.211	77.7	-0.414	96.8	inactive
44	SDF2L1	2	0.128	84.4	-0.0918	96.7	inactive
45	SDF2L1	3	-1.02	61.7	-1.24	95.4	inactive
46	DCK	1	0.281	87.5	0.307	90.2	inactive
47	DCK	2	-0.0463	81	-0.0573	91.9	inactive
48	DCK	3	-0.639	69.2	-0.206	81.6	inactive
49	KHDC1	1	0.0465	82.8	-0.158	96.5	inactive
50	KHDC1	2	-0.778	66.4	-1.18	101	inactive
51	KHDC1	3	1.11	104	0.195	110	inactive
52	RLN1	1	0.251	86.9	-0.312	105	inactive
53	RLN1	2	-0.103	79.8	-0.132	92.4	inactive
54	RLN1	3	0.302	87.9	0.149	94.4	inactive
55	PPP1R36	1	-1.14	59.2	-1.52	98.8	inactive
56	PPP1R36	2	2.01	122	1.75	85.9	inactive
57	PPP1R36	3	3.8	158	2.76	85.1	active
